This data set can be described thus: self-splicing fitness, log relative to wild type (ln ratio); higher = more splicing; Tetrahymena group I intron in knt gene, E. coli kanamycin selection, DiMSum; sequences stand for … in CUCUCU…GGAGGGAAAAGUUAUCAGGCAUGCACCUGGUAGCUAGUCUUUAAACCAAUAGAUUGCAUCGGUUUAAAAGGCAAGACCGUCAAAUUGCGGGAAAGGGGUCAACAGCCGUUCAGUACCAAGUCUCAGGGGAAACUUUGAGAUGGCCUUGCAAAGGGUAUGGUAAUAAGCUGACGGACAUGGUCCUAACCACGCAGCCAAGUCCUAAGUCAACAGAUCUUCUGUUGAUAUGGAUGCAGUUCACAGACUAAAUGUCGGUCGGGGAAGAUGUAUUCUUCUCAUAAGAUAUAGUCGGACCUCUCCUUAAUGGGAGCUAGCGGAUGAAGUGAUGCAACACUGGAGCCGCUGGGAACUAAUUUGUAUGCGAAAGUAUAUUGAUUAGUUUUGGAGUACUCGUGGUCG
The procedure, abridged: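 A randomised library covering all eight P1ex-region intron nucleotides was built with the intron in the knt kanamycin-resistance gene on pET-22b(+) and held in E. coli BL21(DE3). Cells were grown overnight at 37°C or 30°C on LB agar, with or without 25 μg/mL kanamycin, plus 100 μg/mL carbenicillin, 50 μM IPTG and 0.2% rhamnose, and pooled colonies were amplicon-sequenced on an Illumina HiSeq 2500. DiMSum fitness is the error-weighted combination of wild-type-normalised replicate fold changes, kanamycin versus none.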

± gives the uncertainty stated by the source. Many entries were measured with a wide error.

AUGGAGCAAUAUUACGCCGC: under “37 °C”, the “self-splicing fitness (ln)” value worked out at 1.1 ± 1.1.

With AGCGAGCAAUAUUACGCACA, the “self-splicing fitness (ln)” value runs as follows: (30 °C) -2.76 ± 0.29; (37 °C) -1.06 ± 0.18. With UUAUAGCAAUAUUACGGUGC, the “self-splicing fitness (ln)” value was -3.01 ± 0.84 (30 °C) and -2.37 ± 0.54 (37 °C). As for GUGCAGCAAUAUUACGUACA, the “self-splicing fitness (ln)” value (30 °C) is -3.1 ± 0.65.

CUAAAGCAAUAUUACGGAUC: the “self-splicing fitness (ln)” value (37 °C) is -3.08 ± 1.

Consider UCCGAGCAAUAUUACGAGGC, for which the “self-splicing fitness (ln)” value reads like this: (30 °C) -3.1 ± 0.36; (37 °C) -1.7 ± 0.39. For GAGUAGCAAUAUUACGCGAC, the “self-splicing fitness (ln)” value (30 °C) is -3.51 ± 0.62 and the “self-splicing fitness (ln)” value (37 °C) is -0.352 ± 0.78.

Regarding AUUAAGCAAUAUUACGGUGC, for the setting “37 °C”, the “self-splicing fitness (ln)” value was -3.29 ± 0.6. In the case of CGUAAGCAAUAUUACGAGCC, the “self-splicing fitness (ln)” value (30 °C) is -4.38 ± 0.59. Regarding UAAGAGCAAUAUUACGUUCC, the “self-splicing fitness (ln)” value (30 °C) is -4.63 ± 1. Take AUUAAGCAAUAUUACGCUCA: the “self-splicing fitness (ln)” value is -0.292 ± 0.068 (30 °C) and -0.258 ± 0.091 (37 °C). Regarding UAUGAGCAAUAUUACGAGUC, where the note is “30 °C”, the “self-splicing fitness (ln)” value was -3.52 ± 0.74. In the case of CUCUAGCAAUAUUACGCUCC, under “30 °C”, the “self-splicing fitness (ln)” value was -3.17 ± 1. As for GUGGAGCAAUAUUACGCGAC, where the note is “37 °C”, the “self-splicing fitness (ln)” value is -0.98 ± 0.77.

Turning to GGGUAGCAAUAUUACGCACA, the “self-splicing fitness (ln)” value (30 °C) was -0.833 ± 0.2 and the “self-splicing fitness (ln)” value (37 °C) is 0.402 ± 0.22.

Regarding ACUUAGCAAUAUUACGCAUA, the “self-splicing fitness (ln)” value is, setting by setting: (30 °C) -1.74 ± 0.12; (37 °C) -1.42 ± 0.14. For the sequence UAGCAGCAAUAUUACGAGCG, the “self-splicing fitness (ln)” value worked out at 0.035 ± 0.078 (30 °C) and 0.235 ± 0.098 (37 °C).

Take GUGGAGCAAUAUUACGCCAU: the “self-splicing fitness (ln)” value was -3.51 ± 0.61 (30 °C) and -1.79 ± 0.82 (37 °C). As for CCCUAGCAAUAUUACGCUAU, where the note is “37 °C”, the “self-splicing fitness (ln)” value was -3.54 ± 0.52.

For UCGUAGCAAUAUUACGAACC, the “self-splicing fitness (ln)” value (30 °C) was -3.17 ± 1. As for UGUGAGCAAUAUUACGGCGC, the “self-splicing fitness (ln)” value (37 °C) is -0.44 ± 1.4. On to GCCCAGCAAUAUUACGGCAG, for which the “self-splicing fitness (ln)” value runs as follows: (30 °C) -3.12 ± 1.1; (37 °C) -3.18 ± 0.53.

Regarding UGCAAGCAAUAUUACGAUGC, under “37 °C”, the “self-splicing fitness (ln)” value was -2.83 ± 0.54. On to UGUUAGCAAUAUUACGCGCA, for which the “self-splicing fitness (ln)” value (30 °C) was -0.674 ± 0.61 and the “self-splicing fitness (ln)” value (37 °C) was -2.2 ± 0.63. Turning to UAACAGCAAUAUUACGAGGC, the “self-splicing fitness (ln)” value was -3.62 ± 0.2 (30 °C) and -1.97 ± 0.18 (37 °C). For AGAGAGCAAUAUUACGAGCG, where the note is “37 °C”, the “self-splicing fitness (ln)” value is -3 ± 1. As for GUCUAGCAAUAUUACGGCGU, the “self-splicing fitness (ln)” value came out at 0.142 ± 0.069 (30 °C) and 0.0882 ± 0.091 (37 °C). In the case of UAGGAGCAAUAUUACGCAGU, under “30 °C”, the “self-splicing fitness (ln)” value is -4.62 ± 0.52. CACUAGCAAUAUUACGACAC: the “self-splicing fitness (ln)” value is -2.65 ± 0.22 (30 °C) and -1.69 ± 0.24 (37 °C).

For CUGAAGCAAUAUUACGCACA, the “self-splicing fitness (ln)” value runs as follows: (30 °C) -2.43 ± 0.55; (37 °C) -1.39 ± 0.87. Take GUAUAGCAAUAUUACGGCGG: the “self-splicing fitness (ln)” value (30 °C) is -3.01 ± 0.62. On to CCGUAGCAAUAUUACGCCGG, for which the “self-splicing fitness (ln)” value (37 °C) is -2.03 ± 0.57. For the sequence UGGUAGCAAUAUUACGCGGU, under “30 °C”, the “self-splicing fitness (ln)” value is -3.79 ± 0.59. As for UGGUAGCAAUAUUACGAAUC, under “37 °C”, the “self-splicing fitness (ln)” value was -3.48 ± 0.52. Turning to AUCGAGCAAUAUUACGGAAA, the “self-splicing fitness (ln)” value (30 °C) was -2.96 ± 0.54. With CUUUAGCAAUAUUACGUUCA, the “self-splicing fitness (ln)” value (30 °C) is -3.54 ± 0.63 and the “self-splicing fitness (ln)” value (37 °C) is -3.21 ± 1. CUGAAGCAAUAUUACGCUAC: the “self-splicing fitness (ln)” value (37 °C) was -3.64 ± 0.59. As for ACACAGCAAUAUUACGUUCC, the “self-splicing fitness (ln)” value was -2.17 ± 0.088 (30 °C) and -1.29 ± 0.1 (37 °C). For the sequence ACCGAGCAAUAUUACGCUUC, the “self-splicing fitness (ln)” value (37 °C) is -3.11 ± 0.52. Consider AUGUAGCAAUAUUACGGGAC, for which the “self-splicing fitness (ln)” value is -2.87 ± 0.57 (30 °C) and -2.49 ± 0.55 (37 °C). On the same counts, the results for UCCUAGCAAUAUUACGCCUU are -2.98 ± 0.33 and -2.34 ± 0.35. For UCUUAGCAAUAUUACGCCUC, the “self-splicing fitness (ln)” value (30 °C) is -1.32 ± 1.4. Consider ACGUAGCAAUAUUACGCGUA, for which the “self-splicing fitness (ln)” value is -2.22 ± 0.17 (30 °C) and -1.74 ± 0.16 (37 °C). Regarding UAGGAGCAAUAUUACGCCCA, the “self-splicing fitness (ln)” value by setting is: (30 °C) -1.8 ± 0.9; (37 °C) -0.0369 ± 0.5.

For AUACAGCAAUAUUACGUGCG, the “self-splicing fitness (ln)” value (30 °C) was -0.886 ± 0.081 and the “self-splicing fitness (ln)” value (37 °C) was -0.3 ± 0.091.

With CUCGAGCAAUAUUACGGGGG, under “37 °C”, the “self-splicing fitness (ln)” value was -3.97 ± 0.59. Turning to AGGGAGCAAUAUUACGUUGC, where the note is “30 °C”, the “self-splicing fitness (ln)” value was -3.42 ± 0.6.

The record behind these values is the supplement of paper PMC7877785.
